Reference: US20240309076A1
These are yes or no findings as the source states them, for the method shown. Some binding calls cover weakened binding; strength is not graded here.

The chains behind the UniProt entries cited, without tags or fusion partners. Where a name states a change or a piece, a line headed by the entry shows the natural chain unless it says otherwise. A line that says so, or that is headed by a name, gives the form on record, which may keep a tag or linker.
Tau and AD-associated Tau in brain tissue and brain extracts of patients with tauopathy (AD, PSP, PiD) (P10636, form named): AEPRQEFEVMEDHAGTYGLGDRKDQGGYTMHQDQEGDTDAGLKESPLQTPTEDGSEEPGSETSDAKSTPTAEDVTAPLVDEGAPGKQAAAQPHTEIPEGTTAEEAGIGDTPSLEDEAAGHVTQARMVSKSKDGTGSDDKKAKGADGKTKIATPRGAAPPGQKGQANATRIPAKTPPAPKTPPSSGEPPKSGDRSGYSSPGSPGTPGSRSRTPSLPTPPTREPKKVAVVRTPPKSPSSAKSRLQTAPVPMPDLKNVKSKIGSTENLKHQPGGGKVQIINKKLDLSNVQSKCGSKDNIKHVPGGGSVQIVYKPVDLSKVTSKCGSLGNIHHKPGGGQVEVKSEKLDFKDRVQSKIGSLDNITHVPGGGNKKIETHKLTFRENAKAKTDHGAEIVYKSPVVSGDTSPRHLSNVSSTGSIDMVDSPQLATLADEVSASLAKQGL

Legend:
[1] = target: Tau and AD-associated Tau in brain tissue and brain extracts of patients with tauopathy (AD, PSP, PiD) (human) (UniProt P10636); assay: IHC on human AD brain tissue
[2] = target: Tau and AD-associated Tau in brain tissue and brain extracts of patients with tauopathy (AD, PSP, PiD) (human) (UniProt P10636); assay: IHC on patient brain tissue (AD, PSP, PiD)
[3] = target: Tau and AD-associated Tau in brain tissue and brain extracts of patients with tauopathy (AD, PSP, PiD) (human) (UniProt P10636); assay: immunoprecipitation from human AD brain extracts

binding [1]: binds
binding [2]: binds
binding [3]: binds
B1: NI-502.4P3 (antibody, V domains shown)
VH: EVQLVQSGAEVKKPGESLKISCKVSGYDFSKYWIGWVRQMPGKGLEWMGLIYPGDSDTRYSPSLEGQVSISADKSISAAYLQFSSLKASDSAMYYCVRKGYSAYLGGWFDPWGQGTLVTVSS
VL: DIQLTQSPDSLAASLGERVTINCRSSQNIFYNSNNKNFLAWYQQKAGQSPKLLIYWASTRESGVPDRFSGSGSGTDFTLTISGLQAGDVAVYFCQQYFTDAPTFGGGTKVEIK
